# Laboratory results taken from patent publication US6414029B1, “Vanadium complexes of monohydroxamates and pharmaceutical compositions comprising them” (priority 1997, dated 2002).
# For at least one compound, name, drawing or mass did not settle the structure.
# Test system: rat adipocytes
# Experiment: Lipogenesis bioassay ([U-14C]glucose incorporation into lipids) in rat adipocytes
# Assay type: cell-based
# Settings: vanadium (+5)
# Method: The fat pads of male Wistar rats were cut into small pieces with scissors and suspended in 3 ml of KRB buffer. […] Five ml of buffer was then added, and the cells were passed through a mesh screen. The cells were then allowed to stand for several minutes in a 15-ml plastic test tube at room temperature, floating, and the buffer underneath was removed. This procedure (suspension, floating, and removal of buffer underneath) was repeated three times.
# In the lipogenic assay, for measurement of glucose uptake and its incorporation into lipids (lipogenesis), the adipocyte suspensions (3×10^5 cells/ml) were divided into plastic vials (0.5 ml per vial) and incubated for 60 min at 37° C. under an atmosphere of carbogen with 0.2 mM [U-^14C]glucose (4-7 mCi/mol), in either the absence or presence of insulin (100 ng/ml), and the complexes to be tested.
compound,measurement,value
"N[C@@H](CCC(=O)NO)C(=O)O [Glu(γ)HXM, L-glutamic acid γ-monohydroxamate]",Molar ratio L-Glu(γ)HXM:Vanadium at which potentiation is maximal,2:1
